# Data: PubChem BioAssay AID2685 (National Center for Advancing Translational Sciences (NCATS), 2010)
# Some of the results follow. These are further read-outs of the screen, such as a control signal, another cell line or another target. No call is given for them. Most of these compounds were active or inconclusive in the main read-out, so they are no random draw. Words in brackets tell the shape of the fitted curve; partial curves, single points and poor fits give uncertain potencies.
# Experiment: qHTS Assay for Lipid Storage Modulators in Drosophila S3 Cells;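 on cell number change: cells counted by Cell Tracker Red CMTPX staining in the red channel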
# Conditions: BODIPY lipid droplet fluorescence, 18-24 h; for cell number change: measured here: cell count max response, cells fed with added oleic acid
# Procedure, shortened: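 Laser-scanning cytometry quantifies lipid droplet accumulation (500–530 nm total intensity; droplet/cell object ratio) in oleic acid-fed (400 uM added) Drosophila S3 cells treated with a concentration series. 20 uM Triacsin C defined 100% inhibition.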
# [1] = measured here: lipid fluorescence (Fed channel) AC50, cells fed with added oleic acid
# [2] = measured here: cell number channel AC50, cells fed with added oleic acid
Structure (SMILES),cell number change [%],AC50 [1],AC50 [2]
CSc1ccccc1NC(=O)Cn1nc([N+](=O)[O-])cc1C,73.3,–,–
COc1ccc(C(=O)O)cc1S(=O)(=O)N1CCSCC1,–,"6510 nM [rising, partial curve]",–
CC1C2C(c3ccccc3)N(C)C(=O)N(C)C2N(C)C(=O)N1C (stereo not given),-2.48,"130 nM [falling, full curve, poor fit]",–
CC(=O)Nc1nc(-c2ccc3c(c2)CCN3C(=O)C2CC2)c(C)s1,-34.6,–,–
COc1cc(OC)cc(-c2c(-c3ccc(F)cc3)c3cc(Br)ccc3n2C)c1,–,"651 nM [falling, partial curve, poor fit]",–
Cc1cc(=O)[nH]c(SCC(=O)N2CCN(C(c3ccccc3)c3ccccc3)CC2)n1,–,–,"1460 nM [falling, partial curve, poor fit]"
Cc1cc(/C=C\c2nc(O)c([N+](=O)[O-])c(=O)[nH]2)c(C)n1-c1ccccc1,-24.6,"5800 nM [falling, partial curve]","651 nM [falling, full curve, poor fit]"
CCNC(=S)N/N=C/c1cccc(OCc2c(F)cccc2Cl)c1,-4.36,"3660 nM [rising, partial curve]",–
CCC(=C(c1ccc(OC)cc1)c1ccc(OC)cc1)c1cn(CC(O)CN2CCN(C)CC2)c2ccccc12 (stereo not given),-64,–,"23100 nM [falling, single point]"
C/C(=N\NC(=O)C1=NNC(=O)C1C)c1cccs1 (stereo not given),–,"1030 nM [falling, single point]","1300 nM [falling, single point]"
CC(=O)N/C(=N\c1nc(C)cc(C)n1)Nc1ccc2ccccc2c1,-1.01,"1300 nM [rising, partial curve]",–
CC1(C)CC(=O)C(C(=O)CCCCC(=O)C2C(=O)CC(C)(C)CC2=O)C(=O)C1,-32.2,"23100 nM [falling, partial curve]","16400 nM [falling, partial curve]"
N#Cc1cc2c(nc1SC1CCCCC1O)CCCC2 (stereo not given),36.9,"130 nM [rising, full curve, poor fit]",–
CCOC(=O)C1CCN(S(=O)(=O)c2nc3nc(C)cc(C)n3n2)CC1,9.06,"146 nM [rising, full curve, poor fit]",–
Nc1ccc(C(=O)NC2CCSc3ccccc32)cc1[N+](=O)[O-] (stereo not given),-27,–,–
CCOC(=O)c1c(NC(=O)CCC(=O)NCc2ccco2)sc2c1CCCC2,18.4,–,"65.1 nM [rising, full curve, poor fit]"
CCOC(=O)C1=C(O)/C(=C/N(C)C)N=C1C,-9.21,–,–
Cc1ccc(CCNC(=O)CN(c2cc(C)cc(C)c2)S(=O)(=O)c2c(C)noc2C)cc1,6.46,–,–
Cc1cc(O)ccc1NS(=O)(=O)c1ccc2c3c(cccc13)C(=O)N2,–,"291 nM [falling, full curve]",–
CC(C)(C)c1ccc(C(=O)NNC(=O)C2CCCCC2)cc1,-7.22,"103 nM [falling, full curve, poor fit]",–
CCCNC(=O)N1CCC(C(=O)c2ccc(F)cc2)CC1,-16.5,"164 nM [falling, full curve, poor fit]",–

Structure (SMILES),cell number change [%],AC50 [1],AC50 [2]
Cn1cnnc1SCC(=O)Nc1ccccc1F,22.3,"6510 nM [rising, single point]",–
NC(=O)c1cc([N+](=O)[O-])ccc1Nc1ccccc1,21.3,"1840 nM [rising, partial curve]",–
C#CCOCCOCCOCCNc1nc(N2CCN(C(=O)[C@H]([C@@H](C)CC)n3cc(CCCCN)nn3)CC2)nc(N2CCN(C(=O)[C@H](C)n3cc(CCCN=C(N)N)nn3)CC2)n1,-16.9,"29100 nM [rising, single point]",–
N#CCSc1nc2ccc(N3CCOCC3)cc2c(=O)n1CCc1ccccc1,–,"29100 nM [rising, partial curve, poor fit]","411 nM [rising, partial curve, poor fit]"
COc1cc(C2c3c(oc4ccccc4c3=O)C(=O)N2c2ccc(C)cn2)ccc1O (stereo not given),-1.28,"2910 nM [rising, full curve, poor fit]",–
Nc1n[nH]c(C2CC2)c1N=Nc1ccc(Cl)cc1,7.79,–,"6510 nM [falling, single point]"
CCc1cc(=O)oc2cc(C)cc(OCC(=O)NCC(O)c3ccccc3)c12 (stereo not given),-2.09,"18400 nM [falling, single point]",–
O=C(CC12CC3CC(C1)CC(CC(=O)N1CCCC1)(C3)C2)N1CCCC1,-14.4,–,–
NCCOc1ccc(C23CC4CC(CC(C4)C2)C3)cc1,-34.7,–,"13000 nM [falling, single point]"
CCOc1ccc(CN2CCN(Cc3cnc(-c4ccccc4)s3)CC2CCO)cc1 (stereo not given),-31.7,"3260 nM [falling, partial curve]","2590 nM [falling, partial curve, poor fit]"
Cc1ccccc1NC(=O)c1cnn(-c2ccccc2)c1C,-1.4,"29100 nM [rising, single point]",–
O=S(=O)(Nc1nc2ccccc2nc1Cl)c1ccc(Cl)cc1,8.55,"146 nM [falling, full curve, poor fit]",–
Cc1ccc(C2=NN(C(=O)CSc3nccn3C)C(c3ccco3)C2)cc1 (stereo not given),-2.48,"580 nM [rising, single point]","731 nM [rising, full curve, poor fit]"
CCN(CC)S(=O)(=O)c1ccc(/C=C/C(=O)OCC(=O)Nc2ccc(C(N)=O)cc2)cc1,20.9,–,"517 nM [rising, single point]"
CC(C)(C)C(=O)NNC(=O)COc1ccc2ccccc2c1Br,-6.35,–,–
COCC(=O)N(C)CC1CCCN(CCc2ccccc2OC)C1 (stereo not given),11.9,"82 nM [falling, full curve, poor fit]",–
O=c1cc(-c2ccco2)nc(-c2cccs2)o1,8.13,"32.6 nM [falling, partial curve, poor fit]",–
O=c1c2ccccc2ncn1-c1ccccc1[N+](=O)[O-],-4.42,"580 nM [falling, single point]",–
CC(C)Cc1ccccc1S(N)(=O)=O,14.1,"29100 nM [rising, single point]",–
O=[N+]([O-])c1ccc(N2CCN(c3ccc([N+](=O)[O-])cc3CO)CC2)c(CO)c1,-42.6,–,"32600 nM [falling, single point]"
Cn1cnc([N+](=O)[O-])c1Cl,-10.6,"3260 nM [falling, full curve]","25.9 nM [falling, full curve, poor fit]"

Structure (SMILES),cell number change [%],AC50 [1],AC50 [2]
Cc1ccc(C)c(OCCC(=O)OCC(=O)NCc2ccccc2)c1,-20.5,–,"116 nM [falling, full curve, poor fit]"
Cc1ccc(CC(=O)CCc2ccccc2)cc1,4.95,"580 nM [rising, single point]",–
CCOC(=O)C1C(=O)C=C(/C=C/c2ccccc2)CC1c1ccc(Cl)cc1 (stereo not given),-38.8,–,"16400 nM [falling, single point]"
Cc1ccc(CNCC(O)(c2ccccc2)c2ccc(Cl)cc2)cc1 (stereo not given),-42.8,–,"1160 nM [falling, full curve, poor fit]"
COc1ccc(N2C(=O)CCC(C(=O)Nc3cccc(C)n3)C2c2ccc(OC)c(OC)c2)cc1 (stereo not given),–,–,"4610 nM [falling, single point]"
CCOC(=O)c1ccccc1NC(=O)CC1SC(=NC)N(C)C1=O (stereo not given),27.5,"2310 nM [rising, partial curve]",–
CCN(CC)S(=O)(=O)c1cccc(C(=O)OCC(=O)Nc2ccc3c(c2)c2ccccc2n3CC)c1,19.4,"5800 nM [rising, single point]",–
CC(C)Cc1nnc(NC(=O)CCC(=O)NC2CC2)s1,-11.6,"517 nM [falling, full curve, poor fit]",–
CCOC(=O)c1csc(NC(=O)CSc2nnnn2-c2ccc(OC)c(OC)c2)n1,-13.3,"18400 nM [falling, partial curve]",–
CCOC(=O)[C@@H]1[C@H]2COc3ccccc3[C@H]2N2C(=O)N(c3cccc(F)c3)C(=O)[C@]12C,19.2,"29100 nM [rising, single point]",–
O=C(O)COCC(=O)NCc1nc(-c2ccc(C(F)(F)F)cc2)no1,-30.2,–,"29100 nM [falling, single point]"
CCOC(=O)N1CCN(C(=O)c2ccc(OC)c(S(=O)(=O)N3CCOCC3)c2)CC1,–,"6.51 nM [falling, full curve, poor fit]",–
COCCNC(=O)C(c1ccc(Cl)cc1)N(CCOC)C(=O)CCC(=O)Nc1ccccn1 (stereo not given),-1.28,–,–
Cc1ccc(C)c(SCC(=O)Nc2ccc(C)c(S(=O)(=O)N3CCOCC3)c2)c1,-3.22,–,–
COC(=O)c1nn(-c2ccc(C)cc2)ccc1=O,-60.3,–,–
Cc1c(C#N)c2ccccc2n1C,-3.19,–,–
CC(=O)Nc1ccc(S(=O)(=O)NCCC(=O)OCC(=O)N2CCN(C(=O)c3ccco3)CC2)cc1,12.3,–,–
O=C(NN=C1CCCC1)c1ccccc1OCCOc1ccccc1,19.1,–,–
O=C(CSc1nnc(-c2ccco2)o1)NC1CCCCCC1,6.72,"2060 nM [falling, partial curve]",–
COc1ccc(OC)c(C2C(C(=O)Nc3nc4ccccc4s3)=C(C)NC3=C2C(=O)CCC3)c1 (stereo not given),-24,"29100 nM [falling, single point]",–

# Entries of single compounds as entered above. Values in the order: cell number change [%] | AC50 [1] | AC50 [2]
# `Cc1ccc(CNCC(O)(c2ccccc2)c2ccc(Cl)cc2)cc1` (stereo not given) in the list: -42.8 | – | 1160 nM [falling, full curve, poor fit]
# `COCCNC(=O)C(c1ccc(Cl)cc1)N(CCOC)C(=O)CCC(=O)Nc1ccccn1` (stereo not given) in the list: -1.28 | – | –
